PubChem BioAssay AID1259308, NCATS | 2017

- Assay: 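Knock-downs that increase output of a recombinant reporter protein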 (primary screen)
- System: human HEK293 embryonic kidney cells stably expressing firefly luciferase (HEK-CMV-Luc2-Hygro)
- Reagents: single siRNA against human genes, 0.8 pmol siRNA per well
- Duration: 72 h
- Detection: 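Reporter luminescence and viable-cell signal on separate replicate plates, given as percent of non-targeting control and median/MAD z-scores, plus per-cell luciferase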
- Reading the numbers: total luciferase, z-score: higher = more reporter protein produced
- Rule for the call: 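Active when the median/MAD z-score for overall luciferase is greater than 3; a gene was taken forward for validation with new siRNAs if at least two of its three siRNAs passed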
- Calls: active = raised luciferase; inactive = no rise
Shown is one part, drawn at random, of about 59,000 reagents. In the full data, about 1,510 (2.6%) were called active. 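Calls use total luciferase alone and ignore viability, so some active siRNAs may act by altering cell number.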 Entries without a mark were called inactive. Further read-outs or replicates are left out here.

total luciferase, z-score, by gene knocked down and reagent
ANKRD20A18P (GeneID 391269): SID160725302 1.01; SID160725303 1.15; SID160733272 1.2
EIF1 (GeneID 10209): SID160726992 -0.2; SID160727001 -0.12; SID160727007 -0.699
ODF1 (GeneID 4956): SID160778353 0.699; SID160778354 2.64; SID160778355 0.23
PRF1 (GeneID 5551): SID160714870 0.764; SID160714871 -0.574; SID160714873 3.41 (active)
LARS2 (GeneID 23395): SID160736185 -0.145; SID160736186 0.285; SID160736187 -0.228
TM2D1 (GeneID 83941): SID160735068 -0.733; SID160751565 -0.99; SID160751566 -0.148
AKAP6 (GeneID 9472): SID160722293 -1.26; SID160722294 -0.373; SID160722295 0.988
SCGB1D2 (GeneID 10647): SID160724281 1.34; SID160724282 1.53; SID160728952 2.61
RPL7P9 (GeneID 653702): SID160734184 -2.78; SID160771054 -3.17; SID160771055 -3.05
ANO5 (GeneID 203859): SID160761164 0.0795; SID160761165 -0.145; SID160761166 0.709
METTL9 (GeneID 51108): SID160740078 -0.575; SID160740079 1.3; SID160740080 -1.84
CFHR1 (GeneID 3078): SID160733054 -1.68; SID160774922 -1.02; SID160774923 -0.346

A run of entries of the results above, as a working copy:
total luciferase, z-score, by gene knocked down and reagent
AKAP6 (GeneID 9472): SID160722295 0.988
SCGB1D2 (GeneID 10647): SID160724281 1.34; SID160724282 1.53

The results go on.
total luciferase, z-score, by gene knocked down and reagent
HNF1A (GeneID 6927): SID160717790 1.23; SID160717791 -0.357; SID160717793 -0.386
KLHL34 (GeneID 257240): SID160762553 5.04 (active); SID160762554 -0.868; SID160762555 0.108
TRMT112P6 (GeneID 391358): SID160733273 0.223; SID160766681 1.08; SID160766682 1.34
HADH (GeneID 3033): SID160774841 1.35; SID160774842 0.382; SID160774843 -0.962
SLFNL1 (GeneID 200172): SID160760822 -0.199; SID160760823 0.505; SID160760824 1.22
KLHDC10 (GeneID 23008): SID160734948 -0.114; SID160734957 0.785; SID160734966 1.57
MREG (GeneID 55686): SID160733617 0.162; SID160744084 0.264; SID160744085 -0.472
